Results taken from patent US4886822A, “Substituted anilide compounds which are useful in the treatment of arrhythmia” (Kowa Company, Ltd., priority 1987, dated 1989).
At least one read-out could not be matched to a standard name with certainty.

Tested on: Chloroform-Induced Arrhythmia
Assay: Activity on Chloroform-Induced Arrhythmia (ventricular fibrillation)
Type: in vivo, ICR-strain mice
Details: 30 mg/kg orally; ICR mice, 10 per group; chloroform vapor
Experimental: Activity on Chloroform-Induced Arrhythmia: ICR-strain mice having a body weight of 20 to 35 g (10 per group) were used, and the test compound was administered orally in a dose of 30 mg/kg. The mice were put in a 1-liter beaker, and observed for 20 minutes for their symptoms or conditions. Then, they were placed in a vessel saturated with a vapor of chloroform, and the time which elapsed until the animals ceased to breathe was measured. After the stopping of the breathing, the mice were taken out from the vessel and their cardiograms (second induction) were recorded by a memory oscilloscope (VC-10, made by Nippon Kodensha) and a linear corder (WTR331 made by Watanabe Measuring Instrument Co., Ltd.). The occurrence of ventricular fibrillation (VF) was evaluated by the cardiograms. The results are shown in Table 1 by percent VF inhibition.

In the case of CCOc1ccc(-c2cccnc2)c(NC(=O)CC(C)N)c1 (stereo not shown) [free form of 33, 3-Amino-5'-ethoxy-2'-(3-pyridyl)butyranilide], the “Percent VF inhibition” value is reported as 100%.
